According to patent US6696303B2, “Identifying substances using cells that express p75NTR” (Trustees of Boston University, priority 1996, dated 2004):
Not every detail of the peptide structures is certain; ends, links or a residue may be inferred. Where a SMILES comes first, the peptide text is derived from it. Bridges are numbered along the chain shown (N, C = ends).

Legend:
[1] = test system: p75^NTR 3T3 cells; assay: cell yield of p75NTR 3T3 cells with β-amyloid and cyclic peptide; type: cell-based
Method: p75^NTR 3T3 cells were maintained in serum free medium supplemented with 200 nM β-amyloid 1-40, 200 nM cyclic peptide […], (SEQ ID NO: 4) 20 nM β-amyloid 1-40 and 200 nM cyclic peptide or diluent alone.

[2] = molecular target: T1, p75^NTR (Homo sapiens, UniProt P08138); assay: competition for 125I labeled β-amyloid 1-40 binding on p75NTR-NIH 3T3 cells; conditions: read-out: 50% inhibition of 125I labeled β-amyloid 1-40 binding; p75NTR 3T3 cells, 4° C., 4 hours
T1 construct: expressed in transfected cells; host or cells: NIH 3T3 fibroblasts, permanently transfected (p75NTR-NIH 3T3 cells)
T1 sequence (P08138 29-427): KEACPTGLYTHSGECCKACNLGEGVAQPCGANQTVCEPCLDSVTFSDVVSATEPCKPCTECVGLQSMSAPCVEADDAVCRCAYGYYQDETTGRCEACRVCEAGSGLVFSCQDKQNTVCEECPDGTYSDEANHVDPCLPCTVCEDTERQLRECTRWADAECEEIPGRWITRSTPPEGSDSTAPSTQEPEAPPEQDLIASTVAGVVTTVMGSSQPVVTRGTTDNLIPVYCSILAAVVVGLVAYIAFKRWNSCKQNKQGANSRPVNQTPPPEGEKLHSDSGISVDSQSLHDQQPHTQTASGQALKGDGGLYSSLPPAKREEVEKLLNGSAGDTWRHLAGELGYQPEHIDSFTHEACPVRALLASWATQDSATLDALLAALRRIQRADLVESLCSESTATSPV
Description: After rinsing in PBS, cells were lysed in 1N NaOH and equal amounts of protein from cell lysates were subject to counting.
[…] (SEQ ID NO: 4). Lysates from 1.5×10^5 cells were subjected to counting.

## CC[C@H](C)[C@@H]1NC(=O)[C@H](C)NC(=O)CNC(=O)[C@H](CCCCN)NC(=O)[C@H](CC(N)=O)NC(=O)[C@H](CO)NC(=O)CNC(=O)[C@H](C(C)C)NC(=O)[C@@H](N)CSSC[C@@H](C(=O)O)NC1=O (H-CVGSNKGAIC-OH; disulfide 1-10 (inferred); N-terminus and C-terminus assumed)
[1]; peptide 200 nM with β-amyloid 200 nM
  effect on β-amyloid-induced cell loss: blocked
[1]; peptide alone
  effect of peptide alone on cell yield: no effect on cell yield
[2]
  IC50: 0.025 µM
